Experimental data reported in patent US9155693B2, “Solubilized magnolol analogs” (Colgate-Palmolive Company, priority 2011, dated 2015).
The name of at least one read-out is uncertain.

Test: Solubilization by other solubilizers
Type: physicochemical
Conditions: PEG-7 glyceryl cocoate, poloxamer 124, PPG-2 hydroxyethyl cocoamide, PPG-5 laureth-5 (Eumulgin ES), PEG-8/SMDI copolymer, isopropyl myristate, or C12-15 alkyl benzoate

CC(C)Cc1ccc(O)c(-c2cc(CC(C)C)ccc2O)c1 [isobutyl magnolol, 5,5′-di-isobutylbiphenyl-2,2′-diol]
ability of other solubilizers to solubilize: not able to solubilize
